Assay results from patent US9132126B2, “Phenyl-isoxazole derivatives and preparation process thereof” (priority 2011, dated 2015).
Values joined by “and” are separate entries in the source; they are usually repeats but may differ in a detail not shown here. Equal entries are not always repeated. At least one read-out could not be matched to a standard name with certainty.

System: novel influenza virus (K09)
Type: cell-based
Conditions: CC50/EC50

**Q.** `CCOC(=O)C1=C[C@@H](OC(CC)CC)[C@H](NC(C)=O)[C@@H](N)C1` [Oseltamivir, reference compound] was tested. Which “SI value K09” value did it give?
**A.** 1600.51 to 3201.024 and 1600.512 to 3201.024
